Patent publication US20110275569A1, “PROTEASES TARGETING AGENTS” (CONSIGLIO NAZIONALE DELLE RICERCHE, priority 2008, published 2011)
Not every detail of the peptide structures is certain; ends, links or a residue may be inferred.

Tested on: proteasome
Experiment: Cell-free proteasome assay with purified proteasome fraction
Type: biochemical
Method: The proteasome down-regulation via APEH inhibition has been investigated. On the basis of the hypothesis that APEH can be used as a target to indirectly control/modulate proteasome functions in tumoral cells, an in vitro approach using the SsCEI 2, SsCEI 3 and SsCEI 4 peptides in the Caco-2 (human colon carcinoma) cell line has been carried out. To this end, differentiated Caco-2 cells were treated with peptides or with a specific proteasome inhibitor (MG132), for 48 h. […] The results were compared to those obtained in the cell-free assays, where a purified proteasome fraction was used.

With “H-TILLEIKNINAD-NH2 [SsCEI 2, TILLEIKNINAD]” the “proteasome activity in cell-free systems” value was “ability to directly interact with the proteasome”.
